# Measurements: PubChem BioAssay AID1347426 (Functional Genomics Laboratory (NCATS/FGL), 2020)
# The whole screen tested about 31,000 sequences, of which about 1,400 (4.5%) were called active.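 Rule for the calls: active = median seed-adjusted z-score above 1 or below -1; inactive = the rest.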 The list shows a part of the results.
# Assay: Novel Modifiers of Survival Motor Neuron (SMN) Protein: Gene Identification via Genome-wide siRNA Screen;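 note: luminescence tracks full-length SMN protein made from the SMN2 reporter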
# Conditions: HEK293T SMN2-luciferase reporter, siRNA knockdown, 72 h; actives lie on both sides
# In short: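 Steps: spot 1 pmol siRNA, add Lipofectamine RNAiMax in serum-free DMEM, seed HEK293T SMN2–luciferase reporter cells; incubate 72 h at 37 °C; add ONE-Glo; normalize luminescence to control siRNA, log10, MAD. Candidates: |MAD| > 1.0.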
row,Sequence,median seed-adjusted z-score
1,GGAUCCAGGAUGAAAUUGATT against PADI2,inactive: -0.199
2,GCAUCAGCAUGUCGGUGGATT against ARID3A,active: -1.11
3,GGAGCUGAAUGAGCUGACATT against OSBPL7,inactive: 0
4,CAGUAGAAGCGAUGCAGGUTT against RBM42,inactive: 0
5,GCAAGUCCCGCAAAAAGAATT against NEIL1,inactive: -0.168
6,GCUUAUGUAUGAGCACGAATT against KIF13B,inactive: 0.456
7,GGAUGUCUCUUUGACCAUATT against HAVCR1,inactive: -0.306
8,GAAGGAGUCUUUGACAUUATT against RAB2A,inactive: -0.038
9,CGGAUUUUGGAGCAUCUUATT against DYRK3,inactive: 0.358
10,GAAUCCGGAUGAGUACUAUTT against PHF17,active: 1.01
11,GGCUUUCCUUGGAGUGAAATT against EZR,inactive: 0.0344
12,CCAUUAGACGGAUUGGACUTT against GYS2,inactive: 0.0101
13,GCAGAAUUCUCCUACCAAATT against ENTPD3,inactive: -0.28
14,CCUUCAUCGAGUUCCGGAATT against PMM1,inactive: -0.597
15,CUCUCCAAAUUUUACCCAATT against MS4A6A,inactive: 0.174
16,GCUCAACUCUCAUUCGGCATT against ZNF550,inactive: 0.131
17,ACCUGAUGGUGGGCGCAAATT against MYBPC3,inactive: 0.304
18,GGUAGUAGUUCCCAAGUUATT against ATP6V1C1,inactive: 0.0821
19,CCACAGAAAUUAGAGGUUATT against TRIM40,inactive: 0.108
20,GUGUGGACUUGGAACAAUATT against THUMPD2,inactive: -0.129
21,GGAUCAUGCAGGACUUUGATT against DHFRL1,inactive: -0.646
22,GGAGGUCAUUAAAACACCATT against HADH,active: 1.11

row,Sequence,median seed-adjusted z-score
1,GUAUUGUAGGCACAACAUATT against ADAM20,inactive: 0.0167
2,GAGCUUUGAGGAGACUGUATT against SLC1A6,inactive: 0.0455
3,GGGACUAUUCCAAAACCCATT against FLAD1,inactive: 0.367
4,CCAGGCUAUUUGUACCGAUTT against CCR6,inactive: 0.103
5,CGCUUAUCCAGGCAGCUAATT against CTNNA2,inactive: -0.0686
6,GGGACAUCCUUUCCGGAAATT against NDUFS3,inactive: -0.54
7,GCUGAGUCAUGAGAUCAGATT against MYOM3,inactive: -0.012
8,CAAUUUCUCUUGAUAUUAATT against ATP5L,inactive: -0.295
9,GUAACUCUGUUGUAACAAUTT against CALCRL,inactive: 0.28
10,GCAAUUAUGCGAUAUGGUATT against CHD4,inactive: 0.625
11,GGCUGGAUCUGCUACUGGATT against SPSB1,inactive: -0.378
12,CCUUCGAUGUCACUCGAAATT against CNOT4,inactive: -0.116
13,CCAGAAUAGUGUUCGGGAATT against CTPS,inactive: 0.0943
14,CCAAGCGUGUCAUCAAUAATT against PAX6,inactive: -0.275
15,CGCUAUGACAACUACAAAATT against SPPL3,inactive: 0.652
16,GGUUUGGAGUGGAAGUCGATT against ABCB6,inactive: -0.359
17,CAACACCAGUCCCACCAGATT against ZNF574,inactive: -0.528
18,AGCUAAUUGUGAUCAACGATT against ADAM11,inactive: 0.102
19,CCAUGGAGGUCCGCAUUAATT against UNC5A,inactive: 0.517
20,GGGAAGUGGUAAAUAAAGATT against MCM7,inactive: 0.0993
21,CUAAAGAGGUCAACAUUGATT against RGS16,inactive: 0
22,ACACCCGCGUGUCUGAUUATT against PPAP2C,active: -1.12

# Taken from above.
# Under median seed-adjusted z-score, GCAAUUAUGCGAUAUGGUATT against CHD4 is entered as inactive: 0.625
# Under median seed-adjusted z-score, GGUUUGGAGUGGAAGUCGATT against ABCB6 is entered as inactive: -0.359

# More results follow.

row,Sequence,median seed-adjusted z-score
1,GCCUCAGUUUCGCAUCAAATT against PLAT,inactive: 0.246
2,AGAGGGACGCGUACAAGGATT against MAF,inactive: -0.418
3,GCUCCCUGCUCACUUUUCATT against INHBE,inactive: 0.172
4,CUACCGUAACAACCGAAAATT against SCN10A,inactive: -0.401
5,CAAGUGGAAUUUCGAUUUUTT against CDKN1B,inactive: 0.244
6,GCCUACAACUUGAUAAGAATT against PIK3C2A,inactive: 0.0177
7,GACUGGGUCUGGUAAAACATT against DHX15,active: 1.36
8,CACCUGAAGUAAAUCGGAUTT against SF3B14,active: -1.26
9,GCUAACUACCAAGUCCUAATT against SLC8A1,inactive: 0.221
10,GCACGAUGUAUACAGCUUUTT against RIPK4,inactive: 0.188
11,AGUACAUCGUGUCCUGUAATT against ACOT11,inactive: 0.636
12,CUGGGUAUCUGGUACAUCATT against GPI,inactive: -0.122
13,GGUAAAAUCAAGUACCAUATT against TIGD2,inactive: -0.13
14,GAAGUGGACUAAAGUAUUATT against DUSP23,inactive: -0.537
15,GCACUUACGAGUCCAUCGATT against ZNF507,inactive: -0.262
16,GAACCUCUCUGAAACUGCUTT against PBLD,inactive: -0.0809
17,GGGCUGCAACAUUCGCACATT against PLA2G5,inactive: 0.0601
18,GCAACUCCUGCAUUACUUATT against PIP5K1A,inactive: 0.0924
19,AACCAGUCCUUAACUCUUATT against ZNF273,inactive: 0.0489
20,AGAUAUUCCGGAAGCAGGATT against PNMA2,inactive: 0.629
21,GGAAAUCGUUCAGUAAGAATT against ZNF175,inactive: -0.0194
22,GAUCUUUGAAGAUCAGCUATT against IFIT1L,inactive: 0.166

row,Sequence,median seed-adjusted z-score
1,CCAGCAUUCCUACUCCUCATT against TFDP3,inactive: -0.135
2,AGACCUUCCGCGACACGUATT against CHST1,inactive: 0.181
3,GGGUGAUCUUGAUACUGCATT against TOP2B,inactive: 0.225
4,GAUACUUUGCCGUCAAUUATT against CA5B,inactive: 0.317
5,GCUGUAUCAAUGACCCUUATT against CLCN6,inactive: -0.136
6,GCGACUAAGGAAAAACUCATT against PDCD4,inactive: -0.0842
7,CGAAGGAAAUGUACAGCAATT against SLC25A42,active: -1.02
8,CAUUCAAAGAAGAAUUGGATT against HNRPA1P4,inactive: -0.906
9,GCAUGCAUCUUAUUGUACATT against ZFP2,inactive: 0
10,GCCUAUUUAGUGCUAAUGATT against ZRANB2,inactive: 0.441
11,CUGUUGGACCGGUACACUUTT against ZNF692,inactive: 0.556
12,CAACGGCUCUUAGACCACATT against SPRY4,active: -1.23
13,GUCUUAGAACCUCAACUGATT against NQO1,inactive: 0
14,GAGUCUCAGCAGUCCAAUUTT against AFF4,inactive: -0.0637
15,CAACAACUAUGACCCAGGATT against CHRNE,inactive: 0.349
16,UCCGCACGCUGAGCACUUUTT against RBP1,inactive: 0.321
17,GUCGUGAUUUGGAGUAUUATT against AP1M2,inactive: 0.0641
18,GCUUAUGGAUGGAGACCAATT against RNF34,inactive: -0.0857
19,GACUUAAGCGAAUAGCUAATT against UTP11L,inactive: -0.755
20,GCGAGAACGAUGCCGAGUUTT against TRIM15,inactive: 0.292
21,GGUGGUUGCUGUAUAUGGATT against KCTD9,active: 1.31
22,UGCCCUUUAAGAUAGCUUATT against F2RL2,inactive: -0.216

# Four successive entries out of the list so far:
row,Sequence,median seed-adjusted z-score
4,CAGUAGAAGCGAUGCAGGUTT against RBM42,inactive: 0
5,GCAAGUCCCGCAAAAAGAATT against NEIL1,inactive: -0.168
6,GCUUAUGUAUGAGCACGAATT against KIF13B,inactive: 0.456
7,GGAUGUCUCUUUGACCAUATT against HAVCR1,inactive: -0.306

# Further results:

row,Sequence,median seed-adjusted z-score
1,CCGAAUUGAUGGGAUAUGATT against HIF1A,inactive: 0.228
2,CGACUUCAUCAGAUCCAGATT against SPIRE1,inactive: 0.336
3,CGGGUAUUGUGGGACUGAATT against USP39,inactive: 0.821
4,CGGCUGCUAUUUGAACUAUTT against SLC15A4,inactive: -0.29
5,GUAAGAAACAUCAUCCACATT against USP41,inactive: 0.808
6,GGAGCGAUAUCACAGCUUATT against RAB5B,inactive: 0.299
7,CUAUGUCAGUGGUCCUGAATT against RETSAT,active: -1.7
8,AAGCUAUUGUGAUCUCUGATT against ZBTB3,inactive: -0.0419
9,UGACCAUACUGGACGUGAATT against RDH16,inactive: 0.421
10,CCACUGCAACUGUAAUUCUTT against PROCA1,inactive: -0.502
11,GGACCGCACUUUAUGGGAATT against SETD7,inactive: -0.0831
12,GGCUCUACGUGCAAGUCAATT against ETNK2,inactive: -0.74
13,GAACAUUGGACCAACUAAATT against FUCA1,inactive: -0.94
14,CAACCAUCCCAUGUCUGUUTT against NMNAT2,active: -1.58
15,AGAACAGCUUUACAGCACUTT against GPSM3,inactive: -0.641
16,GGAAAGCACUCACAGCUAATT against TNFRSF11A,inactive: -0.0833
17,GAGAAAACCUUCGAGCAGATT against NKX6-2,inactive: 0.101
18,GUACCUUCAUUAUGACGAATT against TNFRSF11B,inactive: 0.582
19,GGUUCUAAAUUAGUUCCAUTT against ALG5,inactive: 0.286
